These are yes or no findings as the source states them, for the method shown. Binding seen in cells or lysates may run through a third protein. Some entries that bind do so weakly or less than the wild type. Sequences can lack the tags named with a protein.
Target: PP2A catalytic Cα subunit, N-terminally SmBiT-tagged (human) (UniProt P67775)
Assay: split reporter; live COS-1 cells in 96-well plates transfected with equal mass ratios of plasmids for SmBiT-Cα, Bβ2-LgBiT and Aα (without Lg/SmBiT); luminescence with Nano-Glo Live Cell Substrate after 24-36 h; normalised for Bβ2-LgBiT expression with a cell-permeable HiBiT peptide

The chains behind the UniProt entries cited, without tags or fusion partners.
UniProt P67775: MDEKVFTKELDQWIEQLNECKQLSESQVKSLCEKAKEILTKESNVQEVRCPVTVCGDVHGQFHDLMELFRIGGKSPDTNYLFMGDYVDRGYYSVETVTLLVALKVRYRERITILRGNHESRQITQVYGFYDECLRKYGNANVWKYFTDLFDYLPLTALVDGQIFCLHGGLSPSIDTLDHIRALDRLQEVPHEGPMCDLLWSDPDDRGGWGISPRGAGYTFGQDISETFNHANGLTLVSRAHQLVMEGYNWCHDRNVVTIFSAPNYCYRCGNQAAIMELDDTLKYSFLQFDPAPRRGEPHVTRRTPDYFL

binding: binds
B1: PPP2R2B/Bβ2 wild type, C-terminally LgBiT-tagged (protein, UniProt Q00005-2 1-446)
chain: MKCFSRYLPYIFRPPNTILSSSCHTEADIISTVEFNHTGELLATGDKGGRVVIFQREQESKNQVHRRGEYNVYSTFQSHEPEFDYLKSLEIEEKINKIRWLPQQNAAYFLLSTNDKTVKLWKVSERDKRPEGYNLKDEEGRLRDPATITTLRVPVLRPMDLMVEATPRRVFANAHTYHINSISVNSDYETYMSADDLRINLWNFEITNQSFNIVDIKPANMEELTEVITAAEFHPHHCNTFVYSSSKGTIRLCDMRASALCDRHTKFFEEPEDPSNRSFFSEIISSISDVKFSHSGRYIMTRDYLTVKVWDLNMENRPIETYQVHDYLRSKLCSLYENDCIFDKFECVWNGSDSVIMTGSYNNFFRMFDRNTKRDVTLEASRENSKPRAILKPRKVCVGGKRRKDEISVDSLDFSKKILHTAWHPSENIIAVAATNNLYIFQDKVN

Reference: article PMC11780858
